Paper PMC11726667 (Journal of Medicinal Chemistry, 2024)
In brackets after ≈: the same amount, converted by molar mass.

Test: physchem
Conditions: pH 8

SMILES	solubility [µM]
CN1C(=O)c2ccc(NC(=O)[C@@H]3CCCN3S(=O)(=O)c3ccc(Cl)s3)cc2C1=O [Compound 07]	50 to 79 (≈ 22.7 to 35.9 µg/mL)
N#Cc1ccc(N2C(=O)[C@@H]3C(C(=O)c4ccc5ccccc5n4)=NN[C@@H]3C2=O)cc1 [Compound 13]	199 to 316 (≈ 78.7 to 125 µg/mL)
